Results are given in words; binding and its absence hold for the method and conditions named. In cells and extracts the contact can be indirect. A yes stands for co-enrichment or nearness to the bait. Other partners may have been found.
Target: Torsin1A-TurboID-V5 (human) (UniProt O14656)
Assay: proximity labelling

Sequences of proteins named here, by UniProt entry; tags and fusion partners are left off. Residues count along the entry.
UniProt O14656, residues 21-332: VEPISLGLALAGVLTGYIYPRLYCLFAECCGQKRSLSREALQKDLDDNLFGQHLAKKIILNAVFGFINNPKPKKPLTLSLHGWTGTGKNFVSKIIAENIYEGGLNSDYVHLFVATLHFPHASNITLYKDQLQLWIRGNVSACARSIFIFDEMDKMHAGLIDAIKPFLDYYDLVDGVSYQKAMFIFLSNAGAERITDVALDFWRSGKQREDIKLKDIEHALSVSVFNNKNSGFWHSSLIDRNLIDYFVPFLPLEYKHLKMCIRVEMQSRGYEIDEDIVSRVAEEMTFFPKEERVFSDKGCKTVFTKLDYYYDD

binding: binds
B1: chloride channel CLIC-like protein 1 (CLCC1) (protein, UniProt Q96S66 19-551)
chain: HDDDWIDPTDMLNYDAASGTMRKSQAKYGISGEKDVSPDLSCADEISECYHKLDSLTYKIDECEKKKREDYESQSNPVFRRYLNKILIEAGKLGLPDENKGDMHYDAEIILKRETLLEIQKFLNGEDWKPGALDDALSDILINFKFHDFETWKWRFEDSFGVDPYNVLMVLLCLLCIVVLVATELWTYVRWYTQLRRVLIISFLFSLGWNWMYLYKLAFAQHQAEVAKMEPLNNVCAKKMDWTGSIWEWFRSSWTYKDDPCQKYYELLLVNPIWLVPPTKALAVTFTTFVTEPLKHIGKGTGEFIKALMKEIPALLHLPVLIIMALAILSFCYGAGKSVHVLRHIGGPESEPPQALRPRDRRRQEEIDYRPDGGAGDADFHYRGQMGPTEQGPYAKTYEGRREILRERDVDLRFQTGNKSPEVLRAFDVPDAEAREHPTVVPSHKSPVLDTKPKETGGILGEGTPKESSTESSQSAKPVSGQDTSGNTEGSPAAEKAQLKSEAAGSPDQGSTYSPARGVAGPRGQDPVSSPCG
